These are yes or no findings as the source states them, for the method shown.
Target: 3xFLAG-tagged human eIF2B β subunit (human) (UniProt P49770)
Test: SEC

Protein sequences, listed by entry. Tags and fused reporters are not part of them.
UniProt P49770, whole entry: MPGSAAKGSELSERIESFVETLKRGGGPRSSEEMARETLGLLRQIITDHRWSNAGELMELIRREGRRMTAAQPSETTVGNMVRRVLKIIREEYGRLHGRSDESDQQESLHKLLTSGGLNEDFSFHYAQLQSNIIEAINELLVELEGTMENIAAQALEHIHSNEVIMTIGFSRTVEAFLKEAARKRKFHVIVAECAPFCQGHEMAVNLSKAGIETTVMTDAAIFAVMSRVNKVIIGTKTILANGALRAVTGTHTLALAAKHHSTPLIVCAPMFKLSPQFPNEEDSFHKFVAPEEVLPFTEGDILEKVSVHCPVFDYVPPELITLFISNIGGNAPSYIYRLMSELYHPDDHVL
UniProt O14744, whole entry: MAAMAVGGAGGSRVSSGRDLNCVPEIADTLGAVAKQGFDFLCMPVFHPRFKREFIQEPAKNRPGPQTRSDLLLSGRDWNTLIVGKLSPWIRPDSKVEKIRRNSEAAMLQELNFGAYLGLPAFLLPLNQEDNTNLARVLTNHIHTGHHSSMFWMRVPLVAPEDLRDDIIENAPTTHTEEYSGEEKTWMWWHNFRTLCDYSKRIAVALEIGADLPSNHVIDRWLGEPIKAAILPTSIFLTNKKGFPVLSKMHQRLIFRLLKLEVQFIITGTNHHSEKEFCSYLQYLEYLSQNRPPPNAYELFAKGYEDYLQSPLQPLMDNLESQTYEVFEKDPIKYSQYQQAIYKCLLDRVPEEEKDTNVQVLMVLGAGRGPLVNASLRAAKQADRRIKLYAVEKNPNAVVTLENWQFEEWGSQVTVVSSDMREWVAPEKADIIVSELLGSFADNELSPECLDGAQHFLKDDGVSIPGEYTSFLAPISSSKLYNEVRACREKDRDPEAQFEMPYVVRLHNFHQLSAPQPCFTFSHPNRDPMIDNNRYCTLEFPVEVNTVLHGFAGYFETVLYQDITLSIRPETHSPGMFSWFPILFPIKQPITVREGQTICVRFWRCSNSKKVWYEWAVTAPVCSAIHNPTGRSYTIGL

- binding: no binding
Substance: PRMT5 (from UniProt O14744 1-637)
